Laboratory results taken from patent US20020035246A1.
Results are given in words; binding and its absence hold for the method and conditions named. Some binding calls cover weakened binding; strength is not graded here. Tags and fused reporters may be left off the sequences shown.

Sequences of proteins named here, by UniProt entry; tags and fusion partners are left off. A change or cut given only in a name is not applied to a line headed by its entry.
UniProt P04386: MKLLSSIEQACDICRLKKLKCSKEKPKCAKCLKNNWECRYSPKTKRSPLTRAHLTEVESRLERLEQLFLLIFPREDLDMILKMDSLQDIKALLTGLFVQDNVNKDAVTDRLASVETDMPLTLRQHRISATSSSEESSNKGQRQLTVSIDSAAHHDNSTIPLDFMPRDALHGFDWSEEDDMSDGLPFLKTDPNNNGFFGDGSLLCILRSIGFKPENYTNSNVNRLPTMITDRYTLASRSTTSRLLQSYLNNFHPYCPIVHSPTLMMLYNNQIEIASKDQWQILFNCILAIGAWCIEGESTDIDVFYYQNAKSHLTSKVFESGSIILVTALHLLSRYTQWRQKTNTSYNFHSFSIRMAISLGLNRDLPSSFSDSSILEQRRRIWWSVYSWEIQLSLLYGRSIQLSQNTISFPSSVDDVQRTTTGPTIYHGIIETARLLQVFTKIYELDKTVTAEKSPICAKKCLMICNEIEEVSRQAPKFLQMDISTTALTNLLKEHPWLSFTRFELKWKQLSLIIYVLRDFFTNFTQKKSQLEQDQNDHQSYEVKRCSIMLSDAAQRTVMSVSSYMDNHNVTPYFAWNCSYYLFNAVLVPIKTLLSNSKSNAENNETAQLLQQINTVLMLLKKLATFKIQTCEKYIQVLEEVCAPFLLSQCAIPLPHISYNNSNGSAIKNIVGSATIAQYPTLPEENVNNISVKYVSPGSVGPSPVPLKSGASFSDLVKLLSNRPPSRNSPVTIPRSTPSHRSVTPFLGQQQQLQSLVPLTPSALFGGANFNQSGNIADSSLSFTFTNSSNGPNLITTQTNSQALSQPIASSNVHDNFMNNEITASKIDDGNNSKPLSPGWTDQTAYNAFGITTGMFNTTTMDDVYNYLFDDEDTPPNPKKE
UniProt Q62432: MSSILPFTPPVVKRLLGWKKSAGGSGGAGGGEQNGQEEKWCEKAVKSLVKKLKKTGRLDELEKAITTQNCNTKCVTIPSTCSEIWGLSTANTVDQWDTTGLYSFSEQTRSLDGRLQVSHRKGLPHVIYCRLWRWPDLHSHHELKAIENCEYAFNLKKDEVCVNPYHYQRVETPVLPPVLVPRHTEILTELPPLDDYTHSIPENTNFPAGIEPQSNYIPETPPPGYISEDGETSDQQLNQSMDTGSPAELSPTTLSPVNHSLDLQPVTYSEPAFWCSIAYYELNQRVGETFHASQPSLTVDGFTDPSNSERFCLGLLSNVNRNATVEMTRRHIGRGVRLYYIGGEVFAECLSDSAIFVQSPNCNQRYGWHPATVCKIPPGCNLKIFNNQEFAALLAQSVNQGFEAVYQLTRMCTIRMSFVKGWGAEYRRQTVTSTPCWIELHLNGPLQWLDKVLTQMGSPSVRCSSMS
UniProt P97454: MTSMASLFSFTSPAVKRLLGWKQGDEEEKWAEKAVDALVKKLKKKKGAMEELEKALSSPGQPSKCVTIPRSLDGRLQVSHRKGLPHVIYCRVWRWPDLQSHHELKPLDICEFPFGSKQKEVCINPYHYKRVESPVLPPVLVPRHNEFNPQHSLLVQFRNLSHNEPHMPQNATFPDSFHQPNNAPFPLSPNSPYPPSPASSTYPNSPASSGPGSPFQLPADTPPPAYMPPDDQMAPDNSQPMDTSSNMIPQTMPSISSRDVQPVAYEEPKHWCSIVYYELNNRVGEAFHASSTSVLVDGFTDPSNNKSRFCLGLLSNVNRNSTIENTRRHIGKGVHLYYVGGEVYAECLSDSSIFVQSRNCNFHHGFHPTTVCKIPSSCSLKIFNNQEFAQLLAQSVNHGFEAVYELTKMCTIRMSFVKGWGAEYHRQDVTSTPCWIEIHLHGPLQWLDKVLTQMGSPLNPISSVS

Experiments:
[1] = molecular target: mouse SMAD2 C-domain bait (GAL4DBD fusion) (mouse) (UniProt P04386+Q62432); assay: yeast two-hybrid
[2] = molecular target: mouse SMAD5 C-domain bait (GAL4DBD fusion) (mouse) (UniProt P04386+P97454); assay: yeast two-hybrid

- binding [1]: binds
- binding [2]: binds
B1: SIP7 prey protein (th74; partial open reading frame fused to the GAL4 transactivating domain in pACT2) (protein, not shown: small tags and cut ends)
chain: TEPVRTDRRTEDQTATKERLLPPSGPLPRTPAPAPVTAPDTARCAVLAARHGRALSPGPRALAPSAQRCCPASGRAAETPASVGAGALRVGPAQPSQARQPTMLLLSPRSALVSVYCPQIFLLLSTAVTTLSSVVALGANIICNKIPGLAPRQRAICQSRPDAIIVIGEGAQMGIDECQHQFRFGRWNCSALGEKTVFGQELRVGSREAAFTYAITAAGVAHAVTAACSQGNLSNCGCDREKQGYYNQAEGWKWGGCSADVRYGIDFSRRFVDAREIKKNAGS
